The results in this text go back to PMC7819943, “Rice protein-binding microarrays: a tool to detect cis-acting elements near promoter regions in rice”.

This is one part of the list.

For the assay, the target named is T1, OsSMF1 (Oryza sativa, UniProt Q6ZLB0 1-436).
T1 sequence: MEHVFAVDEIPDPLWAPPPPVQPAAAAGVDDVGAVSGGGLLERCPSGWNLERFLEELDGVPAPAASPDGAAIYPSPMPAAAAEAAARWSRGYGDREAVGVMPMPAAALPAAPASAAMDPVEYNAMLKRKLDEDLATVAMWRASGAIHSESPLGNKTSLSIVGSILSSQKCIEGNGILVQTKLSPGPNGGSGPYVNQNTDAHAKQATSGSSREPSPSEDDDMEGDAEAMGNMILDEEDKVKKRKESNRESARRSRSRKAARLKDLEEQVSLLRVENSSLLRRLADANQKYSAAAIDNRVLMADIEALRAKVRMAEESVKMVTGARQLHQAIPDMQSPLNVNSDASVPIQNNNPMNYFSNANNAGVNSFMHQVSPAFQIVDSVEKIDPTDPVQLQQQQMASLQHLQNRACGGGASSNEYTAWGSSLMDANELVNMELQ
Briefly: protein-binding microarray (RPBM); PBS, 2% BSA, 51.3 ng/ul salmon testes DNA, 50 uM zinc acetate, 200 nM TF, 25 C, 1 h; high values mean tight binding. To be noted: protein: recombinant; tags: N-terminal polyhistidine and DsRed monomer fusion (pET32a); chain copies: 2; label: CyDye5-dUTP incorporated in the synthesized complementary strand; 3' TTTTT single-stranded linker to array surface; dsDNA, one strand shown. Summed up: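 Binding signal is reported as fluorescence intensity per feature (arbitrary units) from an Axon 4000B scanner. Incubation used 200 nM of each Ni–NTA-purified, N-terminally polyhistidine- and DsRed-fused transcription factor from E. coli BL21-CodonPlus on a double-stranded custom Agilent array for 1 h at 25 °C, with 50 µM zinc acetate in the buffer, followed by washing.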
As to “CGCCCGTTGTATTGCAGCCGTGGACTGGACACGCTGGAGGCGGAGTCACCTAGTGCAG”, the binding signal is 3440 fluorescence intensity (a.u.).

Take “TTAAATGTTAAGCCTAATTACGTCATGGTTTGACAACGTTCGGAGTCACCTAGTGCAG”: the binding signal was 4460 fluorescence intensity (a.u.). In the case of “TACGTTGAATATTACCCTCTTGATGACTTGACTAATTTTACGGAGTCACCTAGTGCAG” it was 3880 fluorescence intensity (a.u.); in that of “TCTCTCTCTCTCTCTCTCTCTCTCTCTCTCTCTCTCCGGCCGGAGTCACCTAGTGCAG”, 5410 fluorescence intensity (a.u.); in that of “CACTGGATTTTCCATGTCACCTATTTTAATCTTAGGAGCACGGAGTCACCTAGTGCAG”, 4680 fluorescence intensity (a.u.). Then “CTGTGATGAGTTTGCTGTGTTGTCATCTTCTGTTAGTGGACGGAGTCACCTAGTGCAG”, with 5360 fluorescence intensity (a.u.); and “GTACAATTAAACAGCCGTCGTGTCGGCACAGGTAGCTCGCCGGAGTCACCTAGTGCAG”, with 4430 fluorescence intensity (a.u.); and “TAAGTCAACCTAGTCGTGGTGAGCACGTGGTATTGTTTTCCGGAGTCACCTAGTGCAG”, with 4220 fluorescence intensity (a.u.). In the case of “GTCGACCCACCGTCTGCCACGTCAGCTTGCCGCCCACCATCGGAGTCACCTAGTGCAG” it was 35900 fluorescence intensity (a.u.); in that of “TATCAGATTGCAACAACGGATCACATATGCACATCCCCTTCGGAGTCACCTAGTGCAG”, 25300 fluorescence intensity (a.u.). As for “CGTACTCATCTCCTACACATCATCTCCAATTAATCTAATTCGGAGTCACCTAGTGCAG”, the binding signal was 3180 fluorescence intensity (a.u.).

For “GGCGGAAATATACTATAGTATGACCTGGTATGTTTATTTTCGGAGTCACCTAGTGCAG”, the binding signal was 3520 fluorescence intensity (a.u.).

With “ATGGGCCGAAAGCCCAGCTCCACTGGGCCGCACGGCCGGCCGGAGTCACCTAGTGCAG”, the binding signal was 18000 fluorescence intensity (a.u.). Then “AAAATTGTGATGGCCCAGCGAGGCAGAGCAACCTGTTGTGCGGAGTCACCTAGTGCAG”, with 4000 fluorescence intensity (a.u.); and “CACCGGCCGGCCTGCAGCCGCAGCGCTGCCACGTGGCCGGCGGAGTCACCTAGTGCAG”, with 25400 fluorescence intensity (a.u.); and “AACAAGTCCTTAGGTTACAGTTTGATGACAAACCCTAATTCGGAGTCACCTAGTGCAG”, with 3800 fluorescence intensity (a.u.). In the case of “GACCGAAATACGCACGCATTACACGGATGCAACCCAAACCCGGAGTCACCTAGTGCAG” it was 3200 fluorescence intensity (a.u.); in that of “GCCATCCCCAACACTCGTTGCTGCAGCTACCAACCTCCTCCGGAGTCACCTAGTGCAG”, 3510 fluorescence intensity (a.u.); in that of “GTGATGATTTTGTCATAGCTCATCAGTGTAGTATATGCCTCGGAGTCACCTAGTGCAG”, 3700 fluorescence intensity (a.u.).

Consider “CCATGTTCTTATTACGTGGACACGTTGAGTCTGTGAAACTCGGAGTCACCTAGTGCAG”, for which the binding signal was 5480 fluorescence intensity (a.u.). Consider “GTACACCAGTAGCTTCAACCCAGATCATCTGGTCCCTCTGCGGAGTCACCTAGTGCAG”, for which the binding signal was 3360 fluorescence intensity (a.u.). Then “TTCCCTCTCATCAGGATGGCGAGCTGAGCTGAGCTGAGCTCGGAGTCACCTAGTGCAG”, with 26100 fluorescence intensity (a.u.); and “AGTGTAGGTCGTCATGACAGGATCCTCTGCCCCTTTTACTCGGAGTCACCTAGTGCAG”, with 3430 fluorescence intensity (a.u.). Consider “CAACAACAGTGACCCTCGAAACTACTACTCTGATCTCAGTCGGAGTCACCTAGTGCAG”, for which the binding signal was 27400 fluorescence intensity (a.u.). Consider “CTGACTGACTGGACCAGGTCACCCGCGAGGCCGCGACGTGCGGAGTCACCTAGTGCAG”, for which the binding signal was 4230 fluorescence intensity (a.u.). On to “AATAATGAATAGCGACTTTTCCGACCTGTTTTGGCGCATGCGGAGTCACCTAGTGCAG”, for which the binding signal is 3490 fluorescence intensity (a.u.). In the case of “ATACCGTGATTGGGATTACCTGTGACCTTGCCTATTTGACCGGAGTCACCTAGTGCAG” it was 3220 fluorescence intensity (a.u.); in that of “AGTACTACGCATCACATCCCATGATCCCGAGAGGCTCATGCGGAGTCACCTAGTGCAG”, 3200 fluorescence intensity (a.u.). Then “TATCCAAACAAAGTCCATGTTGGATGGATCCAGATCGCCACGGAGTCACCTAGTGCAG”, with 13800 fluorescence intensity (a.u.). In the case of “TATTACAAGTGACTTTGCCAGGTCATGGATAAGGTCATGCCGGAGTCACCTAGTGCAG”, the binding signal was 10600 fluorescence intensity (a.u.). “TAGTTAAATATCGCTTGACACTTTTACTATTCGACACATACGGAGTCACCTAGTGCAG”: the binding signal is 3320 fluorescence intensity (a.u.). Consider “AACATCGTACATAAGTGAGTAAGTGACTGACCACCACCCACGGAGTCACCTAGTGCAG”, for which the binding signal was 4900 fluorescence intensity (a.u.). In the case of “AAGTCGGGGTGAGTGAGTCCATGGCCCATGGACCGGTGCCCGGAGTCACCTAGTGCAG” it was 31600 fluorescence intensity (a.u.); in that of “AATATTGTGTGTTGTTGTGTTGTCATCTGATATATTTTAGCGGAGTCACCTAGTGCAG”, 6470 fluorescence intensity (a.u.).

In the case of “CCGCGCCGTCCCTCCTGACGCGGCGTCTCGCCGCCGCCGCCGGAGTCACCTAGTGCAG”, the binding signal was 3780 fluorescence intensity (a.u.). Turning to “CGTAGTGAAGGGCTGATGTGGCATTTGACATGTCATCCATCGGAGTCACCTAGTGCAG”, the binding signal is 25300 fluorescence intensity (a.u.). In the case of “GCTCATCTGAGCCAGATGTTCGATCGGCGCCAAGCAGGGGCGGAGTCACCTAGTGCAG” it was 3570 fluorescence intensity (a.u.). Then “GGAGAGGGAGCGGGAGAGGGAGGATTGGAGGATGTGGGGACGGAGTCACCTAGTGCAG”, with 15400 fluorescence intensity (a.u.); and “TCTAATCCTTACGAGTTTCACTGGGAGTGTTTGTTTCTCGCGGAGTCACCTAGTGCAG”, with 33700 fluorescence intensity (a.u.).

As for “CTCCCAATCCACGCGTCCCCTTTTCCCGTCCCTTCCCTTCCGGAGTCACCTAGTGCAG”, the binding signal is 4010 fluorescence intensity (a.u.).

“TAGAGATTTTGTCAGAATTTAATTAAATTATGTGAAATTTCGGAGTCACCTAGTGCAG”: the binding signal was 19900 fluorescence intensity (a.u.). In the case of “TCCTAGTCCTAAGCATGATGTATCATGTAATGTTGAATTGCGGAGTCACCTAGTGCAG” it was 3440 fluorescence intensity (a.u.).
